Data: publication PMC7819943, “Rice protein-binding microarrays: a tool to detect cis-acting elements near promoter regions in rice”
Some of the results follow.

The chains behind the UniProt entries cited, without tags or fusion partners.
UniProt Q0JBA9, entry or part of it: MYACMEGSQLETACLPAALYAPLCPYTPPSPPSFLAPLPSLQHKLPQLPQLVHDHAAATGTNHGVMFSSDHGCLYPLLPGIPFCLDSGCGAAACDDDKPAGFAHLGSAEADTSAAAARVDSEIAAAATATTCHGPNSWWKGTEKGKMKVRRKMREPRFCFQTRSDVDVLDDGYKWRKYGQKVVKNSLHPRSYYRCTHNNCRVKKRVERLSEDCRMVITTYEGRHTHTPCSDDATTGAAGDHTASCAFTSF

The sequences below were run against OsWRKY34 (Oryza sativa, UniProt Q0JBA9 1-250) (assay: protein-binding microarray (RPBM); PBS, 2% BSA, 51.3 ng/ul salmon testes DNA, 50 uM zinc acetate, 200 nM TF, 25 C, 1 h; high values mean tight binding). Conditions: protein: recombinant; tags: N-terminal polyhistidine and DsRed monomer fusion (pET32a); label: CyDye5-dUTP incorporated in the synthesized complementary strand; 3' TTTTT single-stranded linker to array surface; dsDNA, one strand shown.
How it was run: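 Transcription factors were each fused at the N-terminus to a polyhistidine tag plus DsRed and expressed in E. coli BL21-CodonPlus before Ni–NTA purification. Binding to a double-stranded custom Agilent array was carried out with 200 nM protein at 25 °C for 1 h in PBS, 2% BSA, salmon testes DNA and 50 µM zinc acetate. The binding signal is per-feature fluorescence intensity, in arbitrary units, on an Axon 4000B scanner.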
In the case of “CACCTGACCCATTCTTGCTTACCTTATATTTAGCATACTCCGGAGTCACCTAGTGCAG”, the binding signal is reported as 8160 fluorescence intensity (a.u.).
With “CTCGGGGTGTTGGATTTGTTCACTGCAGCGGCTTTGCCGCCGGAGTCACCTAGTGCAG” the binding signal was 10500 fluorescence intensity (a.u.).
With “ATGCCTCTCATTGTTGATGCTTCTCTTCCTCGTTTTTGTTCGGAGTCACCTAGTGCAG” the binding signal was 10500 fluorescence intensity (a.u.).
For “GGTGGTGGGTAGGTGCTGTTCTTATTTGGATCCTAAGACTCGGAGTCACCTAGTGCAG”, the binding signal was 12500 fluorescence intensity (a.u.).
With “AAAGAAAATTTTCTAAGAGGTTGGAGTTCTTGCTAAATTTCGGAGTCACCTAGTGCAG” the binding signal was 8500 fluorescence intensity (a.u.).
“CACACCATCAATCACACGTACGAGCAGTTTCCGCTTCTTTCGGAGTCACCTAGTGCAG” was tested, and the binding signal was 8290 fluorescence intensity (a.u.).
For “TGCGTTGACTTTATCTTCAAATTAATTATGTGCTAATAGGCGGAGTCACCTAGTGCAG”, the binding signal was 22300 fluorescence intensity (a.u.).
For “CTGCCACTCTTTTATCTCTATGGATGCAAGCAGGATGGGTCGGAGTCACCTAGTGCAG”, the binding signal was 9310 fluorescence intensity (a.u.).
In the case of “CCCGTGGCGTCTGCCGGTGCGCGTCTTGTGTGACTCCTACCGGAGTCACCTAGTGCAG”, the binding signal is reported as 8090 fluorescence intensity (a.u.).
In the case of “GCTCCAAATTTCGTTGTTACTCCTCTCGTTGCGCTGCATGCGGAGTCACCTAGTGCAG”, the binding signal is reported as 8800 fluorescence intensity (a.u.).
In the case of “TCTGGTCTGGACGCTTCCTCGCATCGCGTCGTGGGCCTTCCGGAGTCACCTAGTGCAG”, the binding signal is reported as 9900 fluorescence intensity (a.u.).
“TCCTCCTGATCCTCATCGTATACCATCGCACAACCAACAACGGAGTCACCTAGTGCAG” was tested, and the binding signal was 9910 fluorescence intensity (a.u.).
“GGGCTTGCTTTCTTTGGTTCACTTTTGATTTTAGAAGATACGGAGTCACCTAGTGCAG” was tested, and the binding signal was 8050 fluorescence intensity (a.u.).
For “CTCACAGGCTCACACACAGGCACACACACACTTCCCGATGCGGAGTCACCTAGTGCAG”, the binding signal was 12200 fluorescence intensity (a.u.).
For “TTTCTTTTTTCATACCCCGGTCCGCACTGTCCACCGTAGTCGGAGTCACCTAGTGCAG”, the binding signal was 8640 fluorescence intensity (a.u.).
With “CGAGTACCATTCACCATTGTACAACCAACGGCTCAGATCACGGAGTCACCTAGTGCAG” the binding signal was 8140 fluorescence intensity (a.u.).
For “TCTTGATCCTTGTATCCCTGTATGTTGGTTAACTATTTCGCGGAGTCACCTAGTGCAG”, the binding signal was 8640 fluorescence intensity (a.u.).
In the case of “ACTAGTAGTGGTTTGCAGTCCTGTTTGGTAGTGCGCATTTCGGAGTCACCTAGTGCAG”, the binding signal is reported as 13900 fluorescence intensity (a.u.).
With “GGCGGGCGGTGGAATTTGTTGATGTTTGTGTGAATTTGTTCGGAGTCACCTAGTGCAG” the binding signal was 10500 fluorescence intensity (a.u.).
With “TAATATTCTCATGATGAAGTTGGTGTGGTGGTTAAGTAGTCGGAGTCACCTAGTGCAG” the binding signal was 8720 fluorescence intensity (a.u.).
“ATGAAACTAATTTAGTGTTATAAGTATTGTTATATTTTTCCGGAGTCACCTAGTGCAG” was tested, and the binding signal was 8030 fluorescence intensity (a.u.).
In the case of “AATATCCGGTATTCGAGTTTAGGGGTAATTCGATCGTCTACGGAGTCACCTAGTGCAG”, the binding signal is reported as 8670 fluorescence intensity (a.u.).
In the case of “GCCACATGGCTTCACCCCGTCGCACGACTTATCTGGTCCACGGAGTCACCTAGTGCAG”, the binding signal is reported as 9510 fluorescence intensity (a.u.).
In the case of “GATCCTCTCTGTCTTGTGCTTACCGTCGCGGCGTCGGTCGCGGAGTCACCTAGTGCAG”, the binding signal is reported as 8950 fluorescence intensity (a.u.).
With “ACGATTCTTGCATTACTTCACCCCACGCGATTCCCTCCCCCGGAGTCACCTAGTGCAG” the binding signal was 9980 fluorescence intensity (a.u.).
In the case of “CCTTATCGTCATGACACGCCTCCACCGCCGGCGCTTCCATCGGAGTCACCTAGTGCAG”, the binding signal is reported as 8110 fluorescence intensity (a.u.).
For “CTACCCACTCGCGCCGGTCATCGTCATTGTCGCCATGTCCCGGAGTCACCTAGTGCAG”, the binding signal was 10800 fluorescence intensity (a.u.).
In the case of “CGTTGTATCGTTGCCTCTCGTCCTATCCCTATCTCATTCGCGGAGTCACCTAGTGCAG”, the binding signal is reported as 9310 fluorescence intensity (a.u.).
For “CCACAAATTAATCCCTCATGCTCTTGGCATTTACCCACCACGGAGTCACCTAGTGCAG”, the binding signal was 8160 fluorescence intensity (a.u.).
In the case of “GGTGAAGTCTTATAGGCATGCCTAGTCCATTGTCTTTTAGCGGAGTCACCTAGTGCAG”, the binding signal is reported as 9220 fluorescence intensity (a.u.).
With “AAAAACGCTAACCTCCGCCATCCCCACGCCGCGCCGCCCGCGGAGTCACCTAGTGCAG” the binding signal was 8170 fluorescence intensity (a.u.).
In the case of “GTTCGCCACCAAGGACGCCGCCTTCATCCTCTGCTACTCCCGGAGTCACCTAGTGCAG”, the binding signal is reported as 8550 fluorescence intensity (a.u.).
In the case of “CACGCCTTCACCGACCGCCACTCCTGCTCGCCCGAATCGACGGAGTCACCTAGTGCAG”, the binding signal is reported as 11000 fluorescence intensity (a.u.).
In the case of “CCTTTCCGGCGATTTCAATTTCTCCAGTGATTCTCCGACGCGGAGTCACCTAGTGCAG”, the binding signal is reported as 8870 fluorescence intensity (a.u.).
“TTCTTTTCTTTTTCTTTTTCGTTTTCTTCTTATTCTTTTTCGGAGTCACCTAGTGCAG” was tested, and the binding signal was 12900 fluorescence intensity (a.u.).
“CCGATACCGTGTTGGTTAATGTTTCTATCTTATAATCCTGCGGAGTCACCTAGTGCAG” was tested, and the binding signal was 9040 fluorescence intensity (a.u.).
For “TATCTTCCGTGCCCTTTCCGCTAGTTGACCGTTAAATTCTCGGAGTCACCTAGTGCAG”, the binding signal was 9040 fluorescence intensity (a.u.).
For “GTCAGTTTGTCGCTTTTAAATTATTGTGGCAATAACAATTCGGAGTCACCTAGTGCAG”, the binding signal was 9220 fluorescence intensity (a.u.).
For “TGCCTAGATGAATACTGCATGTTTTTTTTTTGTTTGATTTCGGAGTCACCTAGTGCAG”, the binding signal was 9620 fluorescence intensity (a.u.).
In the case of “TCCCGTATAACCCGTCAAAGGTAATGGTCACTACTGACCACGGAGTCACCTAGTGCAG”, the binding signal is reported as 10600 fluorescence intensity (a.u.).
In the case of “GCCAACTTGATCCCAACTGAAATTGACTTCCTTGACCAAACGGAGTCACCTAGTGCAG”, the binding signal is reported as 9240 fluorescence intensity (a.u.).
For “AGTTACTGAGTTAGACGTCTCAAGCTGTGTCGTGGAATAACGGAGTCACCTAGTGCAG”, the binding signal was 8700 fluorescence intensity (a.u.).
With “GTCAAACGTCTGATGTGACATCCAAAAATTTTCATTTCACCGGAGTCACCTAGTGCAG” the binding signal was 8200 fluorescence intensity (a.u.).
With “ACGTGTACCAGCGCGCCGCCTCTGCTCTGCTCCTGAATTCCGGAGTCACCTAGTGCAG” the binding signal was 10000 fluorescence intensity (a.u.).
For “CTTTTTCCACCAACGGACCTGTTGACCCATGTCACCACCCCGGAGTCACCTAGTGCAG”, the binding signal was 9170 fluorescence intensity (a.u.).
For “ATAGTTGTTTTGCCTACCCCACCCATGCCGAAGATGGACACGGAGTCACCTAGTGCAG”, the binding signal was 8790 fluorescence intensity (a.u.).
In the case of “CTCTGAATCTCTGATACTACTATATTTTTCTTTGGTCGATCGGAGTCACCTAGTGCAG”, the binding signal is reported as 8840 fluorescence intensity (a.u.).
With “CTAATTGGCCCAATTACCACAGGCCCACACCCTTTTCTTCCGGAGTCACCTAGTGCAG” the binding signal was 8850 fluorescence intensity (a.u.).
For “TTGGTTTTCTATTCCTCTTTTCAGTTTTATCTTGTACGGTCGGAGTCACCTAGTGCAG”, the binding signal was 8620 fluorescence intensity (a.u.).
“CTTTCATATGTATAAACAAGGTGTTATTTTATCTTTTTTTCGGAGTCACCTAGTGCAG” was tested, and the binding signal was 10600 fluorescence intensity (a.u.).
For “CTCTCTCAACTCCACCACATTTGTCTGTGTTCTTGCTGTCCGGAGTCACCTAGTGCAG”, the binding signal was 8920 fluorescence intensity (a.u.).
For “CAGTCTGCTCTTTCCTGTCTTCTCCTCCACCTTTTTATACCGGAGTCACCTAGTGCAG”, the binding signal was 9510 fluorescence intensity (a.u.).
In the case of “CCGTATTTTAATGCACGACACCTTTGACTTTTTGATAAACCGGAGTCACCTAGTGCAG”, the binding signal is reported as 9990 fluorescence intensity (a.u.).
For “CCTGTTGATCCCGTGTCTGTCTCTAGTGTTCTTGGCGCCTCGGAGTCACCTAGTGCAG”, the binding signal was 16300 fluorescence intensity (a.u.).
